Assay [1] addresses T1, intein-BHMT (betaine homocysteine S-methyltransferase) (R. norvegicus) (UniProt O09171).
T1 sequence: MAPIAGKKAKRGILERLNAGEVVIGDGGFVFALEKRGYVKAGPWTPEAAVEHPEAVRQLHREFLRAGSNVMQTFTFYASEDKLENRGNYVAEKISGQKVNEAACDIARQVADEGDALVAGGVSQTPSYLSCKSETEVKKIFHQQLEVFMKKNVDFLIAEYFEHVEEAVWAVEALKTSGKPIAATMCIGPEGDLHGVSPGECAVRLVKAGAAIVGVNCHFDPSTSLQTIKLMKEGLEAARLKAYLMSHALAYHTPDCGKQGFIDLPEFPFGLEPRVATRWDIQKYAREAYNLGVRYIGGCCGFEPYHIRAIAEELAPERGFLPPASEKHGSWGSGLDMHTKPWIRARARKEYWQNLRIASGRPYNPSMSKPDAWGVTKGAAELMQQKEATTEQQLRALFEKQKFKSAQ
In words: affinity purification with mass spectrometry; intein-BHMT held on chitin beads; rat liver cytosol first passed over a bead-only and an intein column; 10 mM sodium phosphate pH 7.4, 5 mM EDTA, 0.1 mM EGTA, 4°C; bound proteins eluted with a 0-500 mM NaCl gradient (peak at 50-100 mM NaCl); LC-MS/MS; only the target purified.

The target in assay [2] is T1, intein-BHMT (betaine homocysteine S-methyltransferase) (R. norvegicus). The experiment in a line: affinity purification with mass spectrometry; same intein-BHMT chitin column after the salt gradient; proteins recovered together with BHMT upon intein excision with 30 mM 2-mercaptoethanol, 48 h at 23°C (strong interactors); LC-MS/MS; only the target purified.

These are yes or no findings as the source states them, for the method shown. Binding seen in cells or lysates may run through a third protein. These calls come from enrichment with a bait or labelling near it, and not all partners need be listed.

B1: RGD1306462 protein (protein, UniProt Q4V8C1 1-375)
chain: MENGERKKLTSTLSDGDHKEENKLKQGIPQDLSSSPKLDRYKIARQLTEKAIKEKKIFSIYGHYPVIRATLRRKGWVEKKFNFFPKPLQNVEDKSAETKENQEIALERFDDIHDVMSRLVKNEIPYLLWTIKRDVVDYHSLTCDQMLNHYGKTASFTTKIGLCLNMRSLPWYVQANPNTFFPRCYGLCTESEKQEFLDDFRRTVAASILKWVVHHQNYCNRAKGKSKKEEAKNGDPSPKKDPDNPDLKLPSLSGQVVDTACKVCQAYLGQLEHEDIDLSDASAEALSEEEWNDLTQQYYLLVHGNASITDSRSYFAQCQALLSKISSVNPQTEIDGIRNIWIIKPAAKSRGRGLLPTEDSILRDALWTVQTCGSQ
Turning to B1, in assay [1], the binding result is reported as “binds”.

B2: Roundabout homolog 4 (protein, UniProt Q80W87 38-961)
chain: LDSPPQILVHPQDQLLQGSGPAKMSCRASGQPLPTIRWLLNGQPLSMATPDLHYLQSDGTLLLHRPPTHGRPQDDQNILSAILGVYTCEASNRLGTAVSRGARLSVAVLQEDFRIQPRDTVAVVGESLVLECGPPWGYPKPSVSWWKDGKPLVLQPGKRTVSGDSLMVARAEKNDTGTYMCMATNNAGQRESRAARVSIQESPDHKEHLELLAVRIQLENVTLLNPEPVKGPKPGPAVWLSWKVSGPAAPAQSYTALFRAQRDPRDQGSPWTEVLLDGLLNAKLGGLRWGQDYEFKVRPSSGRARGPDSNVLLLRLPEQVPSAPPQEVTLRPGNGSVFVSWAPPPAENHNGFIRGYQVWSLGNASLPAANWTVVGEQTQLEIAARMPGSYCVQVAAVTGAGAGEPSIPVCLLLEQAMEQSARDPSKHVSWTLEQLRATLKRPEVIASGAVLLWLLLLGIAVCIYRRRKAGVHLGPGLYRYTSEDAILKHRMDHSDSPWLADTWRSTSGSRDLSSSSSLSSRLGVDPRDPLDGRRSLISWDPRSPGVPLLPDTSTFYGSLIAEQTSSPPVRPSPQTPAARRLPPKLTGTSSPWASSDSLCSRRGLCSPRMSLAPAEAWKAKKKQELHQANSSPLLQGSHPMEIWAWELGSRASKNLSQSPGPNTCSPREAPGAVVAWRALGPQLHRNSSELAARPLPPTPLSLRGAPSHDPQSQCVEKLQAPSSDPLPAAPLSVLNSSRPSSPQASFLSVPSPGSSNLSSSSLSSLEEEDQDSVLTPEEVALCLELSDGEETPTNSVSPMPRAPSPPATYGYISIPTSSGLADMGRAGGGVGSEVGNLLCPPRLCPTPTPSEGSLANGWGSASEDNVPSARASLVSSSDGSFLADAHFARALAVAVDSFGFSLEPREADCVFTGMWARPPPLEWT
As for B2, the binding entry in assay [2] is on record as “binds”.

B3: Microtubule associated scaffold protein 2 (protein, UniProt A0JPQ3 1-315)
chain: MGHHCCKPYICLQCLDKTSERALAKEKELSIELANIRDEVAFNTAKCEKLQKEKEALERRFEEELRRLGWQQQAEVQELQERLQQQFQAESARLQAEHQDQMLRMRCQHQEQVEDITASHEAALLEMENNHTVAITILQDDHDHKVQELMSTHEFEKKELEENFEKLRLSLQIALAPYQHLEEDMQSLKQVLEMKNQQIHLQEKKIIELEKLVEKNIILEEKIQVLQQQNEDLKARIDQNTVVTRQLSEENANLQEYVEKETQEKKRLSRTNEELLWKLQTGDPTSPIKLSPTSPVYRGSSSGPSSPARVSTTPR
Consider B3, for which the binding result in assay [2] is “binds”.

B4: High mobility group protein 2 (HMGB-2) (protein, UniProt P52925 1-210)
chain: MGKGDPNKPRGKMSSYAFFVQTCREEHKKKHPDSSVNFAEFSKKCSERWKTMSAKEKSKFEDLAKSDKARYDREMKNYVPPKGDKKGKKKDPNAPKRPPSAFFLFCSEHRPKIKSEHPGLSIGDTAKKLGEMWSEQSAKDKQPYEQKAAKLKEKYEKDIAAYRAKGKSEVGKKGPGRPTGSKKKNEPEDEEEEEEEEDDEDEEEEDEDEE
B4: the binding entry in assay [1] is reported as “binds”.

B5: Sjogren syndrome antigen B, SSB (protein, UniProt P38656 1-415)
chain: MAENGDNEKMAALEAKICHQIEYYFGDFNLPRDKFLKEQIKLDEGWVPLETMIKFNRLNRLTTDFNVIVQALSKSKANLMEVSADKTKIRRSPSRPLPEVTDEYKNDVKNRSVYIKGFPTDATLDDIKEWLDDKGQILNIQMRRTLHKTFKGSIFAVFDSIQSAKKFVDTPGQKYKDTNLLILFKEDYFAKKNEERKQSKVEAKLKAKQEHEGRHKPGSTETRALEGKMGCLLKFSGDLDDQTCREDFHFLFSNHGEIKWIDFVRGAKEGIILFKEKAKDALEKARSANNGNLLLRNKKVTWKVLEGHAEKDAMKKITDDQQESLNKWKSKGGHAARRFKGSHVFTAARRFKGRGKGNRPAYAGAPKGRGQFQGRRTRFDDDDHRRGPVKRGIDGRDREEPASKHKKRENGARDK
In the case of B5, the binding entry in assay [1] is “binds”.

B6: CXXC-type zinc finger protein 5, CXXC5 (protein, UniProt Q5XIQ3 1-316)
chain: MSSLGGGSQDAGGSSSSSNTSSSSGSGQKAGGTDKSATVAATAPASVADDAPPPERRNKSGIISEPLNKSLRRSRPLSHYSSFGSSGGAGSMMGGESADKAAAAAASLLANGHDLAAAMAVDKSNPTSKHKSGAVASLLSKAERATELAAEGQLTLQQFAQSTEMLKRVVQEHLPLMSEAGAGLPDMEAVAGAEALNGQSDFPYLGAFPINPGLFIMTPAGVFLAESALHMAGLAEYPMQGELASAISSGKKKRKRCGMCAPCRRRINCEQCSSCRNRKTGHQICKFRKCEELKKKPSAALEKVMLPSGAAFRWFQ
Take B6: the binding entry in assay [1] is reported as “binds”.

B7: High affinity cGMP-specific 3’,5’-cyclic phosphodiesterase 9A (protein, UniProt Q8QZV1 1-534)
chain: MGAGSSSYRPKAIYLDIDGRIQKVVFSKYCNSSDIMDLFCIATGLPRNTTISLLTTDDAMVSIDPTMPANSERTPYKVRPVAVKQVSEREELVQGVLAQVAEQFSRAFKINELKAEVANHLAMLEKRVELEGLKVVEIEKCKSDIKKMREELAARNNRTNCPCKYSFLDNKKLTPRRDVPTYPKYLLSPETIEALRKPTFDVWLWEPNEMLSCLEHMYHDLGLVRDFSINPITLRRWLLCVHDNYRSNPFHNFRHCFCVTQMMYSMVWLCGLQEKFSQMDILVLMTAAICHDLDHPGYNNTYQINARTELAVRYNDISPLENHHCAIAFQILARPECNIFASVPPEGFRQIRQGMITLILATDMARHAEIMDSFKEKMENFDYSNEEHLTLLKMILIKCCDISNEVRPMEVAEPWVDCLLEEYFMQSDREKSEGLPVAPFMDRDKVTKATAQIGFIKFVLIPMFETVTKLFPIVEETMLRPLWESREHYEELKQLDDAMKELQKKTENLTSGATENAPEKTRDAKDNEDRSPPN
Consider B7, for which the binding entry in assay [2] was “binds”.

B8: Coatomer subunit beta (protein, UniProt P23514 1-953)
chain: MTAAENVCYTLINVPMDSEPPSEISLKNDLEKGDVKSKTEALKKVIIMILNGEKLPGLLMTIIRFVLPLQDHTIKKLLLVFWEIVPKTTPDGRLLHEMILVCDAYRKDLQHPNEFIRGSTLRFLCKLKEAELLEPLMPAIRACLEHRHSYVRRNAVLAIYTIYRNFENLIPDAPELIHDFLVNEKDASCKRNAFMMLIHADQDRALDYLSTCIDQVQTFGDILQLVIVELIYKVCHANPSERARFIRCIYNLLQSSSPAVKYEAAGTLVTLSSAPTAIKAAAQCYIDLIIKESDNNVKLIVLDRLVELKEHPAHERVLQDLVMDILRVLSTPDLEVRKKTLQLALDLVSSRNVEELVIVLKKEVIKTNNVSEHEDTDKYRQLLVRTLHSCSVRFPDMAANVIPVLMEFLSDSNEAAAADVLEFVREAIQRFDNLRMLIVEKMLEVFHAIKSVKIYRGALWILGEYCSTKEDIQSVMTEVRRSLGEIPIVESEIKKEAGELKPEEEITVGPVQKLVTEMGTYATQSALSSSRPTKKEEDRPPLRGFLLDGDFFVAASLATTLTKIALRYVALVQEKKKQNSFVAEAMLLMATILHLGKSSLPKKPITDDDVDRISLCLKVLSECSPLMNDIFNKECRQSLSQMLSAKLEEEKLSQKKESEKRNVTVQPDDPISFMQLTAKNEMNCKEDQFQLSLLAAMGNTQRKEAADPLASKLNKVTQLTGFSDPVYAEAYVHVNQYDIVLDVLVVNQTSDTLQNCTLELATLGDLKLVEKPSPLTLAPHDFANIKANVKVASTENGIIFGNIVYDVSGAASDRNCVVLSDIHIDIMDYIQPATCTDAEFRQMWAEFEWENKVTVNTNVTDLNDYLQHILKSTNMKCLTPEKALSGYCGFMAANLYARSIFGEDALANVSIEKPVHQGPDAAVTGHIRIRAKSQGMALSLGDKINLSQKKTSL
Take B8: in assay [1], the binding entry is “binds”.

B9: Ephrin B1 (entry Q6P7B6) (protein, UniProt P52796 25-345)
chain: ATPLAKNLEPVSWSSLNPKFLSGKGLVIYPKIGDKLDIICPRAEAGRPYEYYKLYLVRPEQAAACSTVLDPNVLVTCNKPQQEIRFTIKFQEFSPNYMGLEFKKYHDYYITSTSNGSLEGLENREGGVCRTRTMKIVMKVGQDPNAVTPEQLTTSRPSKESDNTVKTATQAPGRGSQGDSDGKHETVNQQEKSGPGAGGSGSGDTDSFFNSKVALFAAVGAGCVIFLLIIIFLTVLLLKLRKRHRKHTQQRAAALSLSTLASPKGDSGTAGTEPSDIIIPLRTTENNYCPHYEKVSGDYGHPVYIVQEMPPQSPANIYYKV
As for B9, in assay [2], the binding result is “binds”.

B10: BTB/POZ domain-containing protein KCTD7 (protein, UniProt B1WC97 1-289)
chain: MVVVNGREPDSRHSDGAMSSSEAEDDFLEPATPTATQAGHGLPLLPQEFPEVVPLNIGGAHFTTRLSTLRRYEDTMLAAMFSGRHYIPTDSEGRYFIDRDGTHFGDVLNFLRSGDLPPREHVRAVHKEAQYYAIGPLLEQLENMQPLKGEKVRQAFLGLMPYYKDHLERIVEIARLRAVQRKARFAKLKVCVFKEEMPITPYECPLLNSLRFERSESDGQLFEHHCEVDVSFGPWEAVADVYDLLHCLVTDLSAQGLTVDHQCIGVCDKHLVNHYYCKRPIYEFKITWW
Consider B10, for which the binding result in assay [1] was “binds”.

B11: Heterogeneous nuclear ribonucleoprotein H (protein, UniProt Q8VHV7 1-449)
chain: MMLGAEGGEGFVVKVRGLPWSCSADEVQRFFSDCKIQNGAQGIRFIYTREGRPSGEAFVELESEDEVKLALKKDRETMGHRYVEVFKSNNVEMDWVLKHTGPNSPDTANDGFVRLRGLPFGCSEEEIVQFFSGLEIVPNGITLPVDFQGRSTGEAFVQFASQEIAEKALKKHKERIGHRYIEIFKSSRAEVRTHYDPPRKLMAMQRPGPYDRPGAGRGYNSIGRGAGFERMRRGAYGGGYGGYDDYNGYNDGYGFGSDRFGRDLNYCFSGMSDHRYGDGGSTFQSTTGHCVHMRGLPYRATENDIYNFFSPLNPVRVHIETGPDGRVTGEADVEFATHEDAVAAMSKDKANMQHRYVELFLNSTAGASGGAYEHRYVELFLNSTAGASGGAYGSQMMGGMGLSNQSSYGGPASQQLSGGYGGGYGGQSSMSGYDQVLQENSSDFQSNIA
Consider B11, for which, in assay [1], the binding entry is “binds”.

For the origin of these results see article PMC6010280.
